Assay results from paper PMC5353614.
These are yes or no findings as the source states them, for the method shown. Binding seen in cells or lysates may run through a third protein. Some binding calls cover weakened binding; strength is not graded here.

The chains behind the UniProt entries cited, without tags or fusion partners. Residues count along the entry.
UniProt P40946: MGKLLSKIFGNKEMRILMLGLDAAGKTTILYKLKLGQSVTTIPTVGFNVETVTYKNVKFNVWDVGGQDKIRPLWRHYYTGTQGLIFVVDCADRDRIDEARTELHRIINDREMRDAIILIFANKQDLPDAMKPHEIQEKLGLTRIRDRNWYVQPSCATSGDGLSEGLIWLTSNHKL
UniProt Q02936, residues 85-471: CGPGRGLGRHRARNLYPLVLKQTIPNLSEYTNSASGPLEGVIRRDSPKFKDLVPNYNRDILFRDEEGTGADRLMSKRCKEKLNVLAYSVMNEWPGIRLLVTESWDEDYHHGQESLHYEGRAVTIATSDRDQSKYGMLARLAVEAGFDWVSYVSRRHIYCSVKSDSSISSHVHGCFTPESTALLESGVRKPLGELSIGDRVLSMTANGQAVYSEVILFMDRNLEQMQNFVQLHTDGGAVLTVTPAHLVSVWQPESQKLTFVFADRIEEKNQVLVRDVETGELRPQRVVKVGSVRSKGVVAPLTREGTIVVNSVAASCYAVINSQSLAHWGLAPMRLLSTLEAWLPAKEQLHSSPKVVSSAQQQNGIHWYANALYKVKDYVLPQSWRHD

Biological target: ADP-Ribosylation Factor 6 (Drosophila (endogenous in imaginal discs)) (UniProt P40946)
Assay: co-IP; lysates of imaginal discs from 50 third-instar animals with Ras^V12 clones (also Egfr^Top-CA, Ras^V12 or EGFR-DN, Ras^V12 double mutant clones); lysis buffer 50 mM HEPES pH 7.5, 150 mM KCl, 5 mM MgCl2, 0.01% Triton-X; anti-Arf6 4 h at 4 °C, protein A agarose beads; washed in buffer with 0.5% TritonX-100; blotted with anti-Hh

binding: binds
Substance: Hedgehog (from UniProt Q02936 85-471)
